PMC4703387, “Identification of the Calmodulin-Binding Domains of Fas Death Receptor” (PLoS ONE, 2016)

Test system: Ca^2+/CaM–FasDD complex
Assay: Un-induced proteolysis: stability on storage at 4°C for one week

B1: FasDD: intracellular death domain of Fas (protein)
chain: SKYITTIAGVMTLSQVKGFVRKNGVNEAKIDEIKNDNVQDTAEQKVQLLRNWHQLHGKKEAYDTLIKDLKKANLCTLAEKIQTII
- stability on storage, unbound control: stable and not prone to degradation
- stability on storage, in 2:1 Ca^2+/CaM–FasDD complex (no protease added, SDS-PAGE (minor subtilisin contamination)): degraded and gave rise to stable and proteolysis resistant ~5 kDa FasDD fragment(s)
